These are yes or no findings as the source states them, for the method shown. Binding seen in cells or lysates may run through a third protein. Sequences can lack the tags named with a protein.

Amino acid sequences for entries named in this document (tags omitted).
UniProt P50461: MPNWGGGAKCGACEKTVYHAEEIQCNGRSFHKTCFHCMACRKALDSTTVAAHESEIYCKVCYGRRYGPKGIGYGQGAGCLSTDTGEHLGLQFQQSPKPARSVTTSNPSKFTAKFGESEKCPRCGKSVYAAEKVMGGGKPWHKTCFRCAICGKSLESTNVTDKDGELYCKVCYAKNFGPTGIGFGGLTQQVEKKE

The target of the test is T1, HA-tagged syndecan-4 (HA-SDC4) (human) (UniProt P31431).
T1 sequence: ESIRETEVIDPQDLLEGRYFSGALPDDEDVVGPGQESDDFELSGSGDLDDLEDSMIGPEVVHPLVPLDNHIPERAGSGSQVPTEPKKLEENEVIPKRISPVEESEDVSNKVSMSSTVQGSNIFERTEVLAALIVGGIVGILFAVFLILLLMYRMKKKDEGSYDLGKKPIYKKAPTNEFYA
The experiment in a line: co-IP; H9c2 cells transfected with HA-SDC4 and untagged MLP, basal conditions, lysis buffer; IP with anti-HA, blot with anti-MLP.

Consider “untagged human MLP expressed in H9c2 cells (from UniProt P50461 1-194)”, for which the binding result is “no binding”.

These data come from publication PMC11172336, “Exploring Syndecan-4 and MLP and Their Interaction in Primary Cardiomyocytes and H9c2 Cells” (Cells, 2024).
